Patent publication US20220259556A1, “METHOD FOR OBTAINING IMMUNO-SUPPRESSIVE DENDRITIC CELLS” (Transimmune AG, priority 2013, published 2022)
“Also recorded” adds a separate entry of the source. At least one compound was matched to its structure with a doubt left.

System: GILZ
Experiment: GILZ mRNA expression in CD11c+ MoDC (quantitative real-time PCR)
Format: cell-based, human
Details: dose titration, 24 hr

C[C@@H]1C[C@H]2[C@@H]3CCC4=CC(=O)C=C[C@]4(C)[C@@]3(F)[C@@H](O)C[C@]2(C)[C@@]1(O)C(=O)CO [dexamethasone]
GILZ expression in MoDC after treatment with dexamethasone: dose-dependent manner; also recorded: up-regulated
